Test results reported in the supplement of paper PMC7125110.
± gives the standard error. Many of these values have a large error.

B1: glmS ribozyme (parent)
chain: AUAAAAGCGCCAGAACUACAGAAAUGUAGUUGACGAGGAGGAGGUUUAUCGAAUUUUCGGCGGAUGCCUCCAAA

Variants of: B1
Test: self-cleavage kobs at 10000 uM GlcN6P; higher = faster cleavage; RNA array
Conditions: with glucosamine-6-phosphate
How it was run: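 Glucosamine-6-phosphate (40 μM to 10 mM) in HEPES/KCl/Mg(OAc)2 buffer was flowed over sequenced MiSeq chips, and tiles were imaged over ~14 h. Barcoded ribozyme variants there had been transcribed in situ by E. coli RNA polymerase and were tracked through a hybridised Cy3 probe at 37 °C. One- or two-exponential decay fits to per-tile medians, normalised to baseline and to non-cleaving reference variants, gave kobs. kcat and KM came from weighted Michaelis–Menten fits across concentrations.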

Q: Which “self-cleavage kobs at 10000 uM GlcN6P” value does the source give for AUAAAAGCGCCAGAACUACAGAAAUGUAGUUGACGAGGAGGAGGUUUAUGGAAUUUUGGGCGGAUGCCUCCAAA [C50G C58G] here?
A: Its value is 0.000164 ± 9.9e-05 s⁻¹.

Q: Which “self-cleavage kobs at 10000 uM GlcN6P” value does the source give for AUAAAAGCGCCAGAACUACAGAAAUGUAGUUGACGAGGAGGAGGUGUAUCGUAUUUUCGGCGGGUGCCUCCAAA [U46G A52U A64G] here?
A: Its value is 3.76e-05 ± 1.9e-05 s⁻¹.

Q: How did the “self-cleavage kobs at 10000 uM GlcN6P” value turn out when AUAAAAGCGCCAGAACUACAGAAAUGUAGUUGACAAGGAGGAGGUUUAUCGAAUUUUCGGGGGAGGACGCCAAA [G35A C61G U65G C67A U69G] was run?
A: Its value is 2.95e-05 ± 1.9e-05 s⁻¹.

Q: How did the “self-cleavage kobs at 10000 uM GlcN6P” value turn out when AUAAAAGCGCCAGAACUACAGAAAUGUAGUUGACGAGGAGGAGGUGUAUCGAAUUUUCGGCGGAUGUGUCCAAA [U46G C67U C68G] was run?
A: Its value is 3.91e-05 ± 2.2e-05 s⁻¹.

Q: For AUAAAAGCGCCAGAACUACAGAAAUGUAGUUGACGAGGAGGAGGUUUAUAGAAUUUUCGGCGGAUGACUUCAAA [C50A C67A C70U], which “self-cleavage kobs at 10000 uM GlcN6P” value is on record?
A: Its value is 2.56e-05 ± 1.8e-05 s⁻¹.

Q: For AUAAAAGCGCCAGAACUACAGAAAUGUAGUUGACGAGGAGGAGGUGUAUCGAAUUUCCGGCGGAUGCCUCCAAA [U46G U57C], which “self-cleavage kobs at 10000 uM GlcN6P” value is on record?
A: The value was 2.26e-05 ± 1.5e-05 s⁻¹.

Q: AUAAAAGCGCCAGAACUACAGAAAUGUAGUUGACGAGGAGGAGGUUUAUCGAAUUUUAAGCGGAUGCCUCCAAA [C58A G59A] was tested. Which “self-cleavage kobs at 10000 uM GlcN6P” value did it give?
A: Its value is 1.06e-05 ± 9.3e-06 s⁻¹.

Q: How did the “self-cleavage kobs at 10000 uM GlcN6P” value turn out when AUAAAAGCGCCAGAACUACAGAAAUGUAGUUGACAAGGAGGAGGUUUAUCGAAUUUUCGGCGGAUGCGUCCAAA [G35A C68G] was run?
A: The value was 6.98e-05 ± 5.6e-05 s⁻¹.

Q: Which “self-cleavage kobs at 10000 uM GlcN6P” value does the source give for AUAAAAGCGCCAGAACUACAGAAAUGUAGUUGACGAGGAGGAGGUUUAUCGAAUUUUCGGCGGAUGCUUCCAAA [C68U] here?
A: Its value is 0.01 ± 0.0058 s⁻¹.

Q: AUAAAAGCGCCAGAACUACAGAAAUGUAGUUGAAGAGGAGGAGGUUUAUCGAAUUUUCGGCGGAUGCGUCCAAA [C34A C68G] was tested. Which “self-cleavage kobs at 10000 uM GlcN6P” value did it give?
A: Its value is 0.000599 ± 0.00047 s⁻¹.

Q: For AUAAAAGCGCCAGAACUACAGAAAUGUAGUUGACGAGGAGGAGGUUUAUCGAAUUUUUGGCGGAUGCCUGCAAA [C58U C70G], which “self-cleavage kobs at 10000 uM GlcN6P” value is on record?
A: The value was 1.22e-05 ± 9.4e-06 s⁻¹.

Q: AUAAAAGCGCCAGAACUACAGAAAUGUAGUUGACGAGUAGGAGGUUUAUCGAAUUUUCGGCGGAGGUCUUCAAA [G38U U65G C67U C70U] was tested. Which “self-cleavage kobs at 10000 uM GlcN6P” value did it give?
A: The value was 2.3e-05 ± 1.8e-05 s⁻¹.

Q: With AUAAAAGCGCCAGAACUACAGAAAUGUAGUUGUCGCGGAGGAGGUUUAUCGAAUUUUGGGCGGAUGCCCCCAAA [A33U A36C C58G U69C] as the variant, how does the “self-cleavage kobs at 10000 uM GlcN6P” value read?
A: Its value is 2.97e-05 ± 1.8e-05 s⁻¹.

Q: Which “self-cleavage kobs at 10000 uM GlcN6P” value does the source give for AUAAAAGCGCCAGAACUACAGAAAUGUAGUUGACGAAGAGAAGGUGUAUCGAAUUUUCGGCGGAUGCCUCCAAA [G37A G41A U46G] here?
A: Its value is 2.69e-05 ± 2.3e-05 s⁻¹.

Q: How did the “self-cleavage kobs at 10000 uM GlcN6P” value turn out when AUAAAAGCGCCAGAACUACAGAAAUGUAGUUGACGAGGAGGAGGUUUAUCGAAUAUUCGACGGAUGCCUCCAAA [U55A G60A] was run?
A: Its value is 1.96e-05 ± 1.9e-05 s⁻¹.

Q: With AUAAAAGCGCCAGAACUACAGAAAUGUAGUUGACGAGGAGGAGGUUUAUCGAAUUUUCGGCGGAUGUGUCCAAA [C67U C68G] as the variant, how does the “self-cleavage kobs at 10000 uM GlcN6P” value read?
A: The value was 1.67e-05 ± 1.1e-05 s⁻¹.

Q: With AUAAAAGCGCCAGAACUACAGAAAUGUAGUUGACGAGGAGGAGGUUUAUCGAAUUUUUGGCGGAUACCUCCAAA [C58U G66A] as the variant, how does the “self-cleavage kobs at 10000 uM GlcN6P” value read?
A: The value was 2.16e-05 ± 1.4e-05 s⁻¹.

Q: How did the “self-cleavage kobs at 10000 uM GlcN6P” value turn out when AUAAAAGCGCCAGAACUACAGAAAUGUAGUUGACGAGGAGGAGGUUUAUCGAAUUUCUGGCGGAUGCCUCCAAA [U57C C58U] was run?
A: Its value is 1.76e-05 ± 1e-05 s⁻¹.

Q: With AUAAAAGCGCCAGAACUACAGAAAUGUAGUUGACGAGGAGGAGGUUUAUGGAAUUUUCGGCGGAAGCCUCCAAA [C50G U65A] as the variant, how does the “self-cleavage kobs at 10000 uM GlcN6P” value read?
A: Its value is 2.04e-05 ± 1.6e-05 s⁻¹.

Q: How did the “self-cleavage kobs at 10000 uM GlcN6P” value turn out when AUAAAAGCGCCAGAACUACAGAAAUGUAGUUGCCGAGGAGGAGGUUUAUCGAAUGUUUGGCGGAUGCAUCCAAA [A33C U55G C58U C68A] was run?
A: Its value is 2.11e-05 ± 2.1e-05 s⁻¹.

Q: For AUAAAAGCGCCAGAACUACAGAAAUGUAGUUGACGAGGAGGAUGUUUAUCGAAUUGUCGGCGGAUGCCUCCAAA [G43U U56G], which “self-cleavage kobs at 10000 uM GlcN6P” value is on record?
A: Its value is 1.46e-05 ± 1.2e-05 s⁻¹.

Q: With AUAAAAGCGCCAGAACUACAGAAAUGUAGUUGACGACGAGGAGGUUUAUCGAAUUUUCGGCGGAUGCUUCCAAA [G37C C68U] as the variant, how does the “self-cleavage kobs at 10000 uM GlcN6P” value read?
A: Its value is 1.51e-05 ± 8.3e-06 s⁻¹.

Q: Which “self-cleavage kobs at 10000 uM GlcN6P” value does the source give for AUAAAAGCGCCAGAACUACAGAAAUGUAGUUGACGAGGAGGAGGUGUAUCUAAUUUACGGCGGAUGCCUGCAAA [U46G G51U U57A C70G] here?
A: Its value is 2.5e-05 ± 1.9e-05 s⁻¹.

Q: For AUAAAAGCGCCAGAACUACAGAAAUGUAGUUGACGAGGAGGCGGUUUAUCGAAUUUUCGGCGGAUGCUUCCAAA [A42C C68U], which “self-cleavage kobs at 10000 uM GlcN6P” value is on record?
A: Its value is 1.07e-05 ± 7.2e-06 s⁻¹.

Q: For AUAAAAGCGCCAGAACUACAGAAAUGUAGUUGACGAGGAGGAGGAUUAUAGAAUUUUCGGCGGAUGCCUCCAAA [U45A C50A], which “self-cleavage kobs at 10000 uM GlcN6P” value is on record?
A: The value was 1.45e-05 ± 9.7e-06 s⁻¹.

Q: Which “self-cleavage kobs at 10000 uM GlcN6P” value does the source give for AUAAAAGCGCCAGAACUACAGAAAUGUAGUUGACGAGGAGGAGGUUAAUCGAAUUUUCGGCGGAUCUCUCCAAA [U47A G66C C67U] here?
A: The value was 3.02e-05 ± 1.5e-05 s⁻¹.

Q: For AUAAAAGCGCCAGAACUACAGAAAUGUAGUUGACGAGGAGGAGGUCUAGCGAAUUUUCGGCGGAUGGCUCCAAA [U46C U49G C67G], which “self-cleavage kobs at 10000 uM GlcN6P” value is on record?
A: Its value is 3.38e-05 ± 2e-05 s⁻¹.

Q: For AUAAAAGCGCCAGAACUACAGAAAUGUAGUUGACGAGGGGGGGGUUUAUCGAAUUUUCGGCGGAUGCCUCCAAA [A39G A42G], which “self-cleavage kobs at 10000 uM GlcN6P” value is on record?
A: The value was 0.0448 ± 0.027 s⁻¹.

Q: With AUAAAAGCGCCAGAACUACAGAAAUGUAGUUGACGAGGAGGAGGUUUAUCGUAUUUUCGGCGGAUGCCGCCAAA [A52U U69G] as the variant, how does the “self-cleavage kobs at 10000 uM GlcN6P” value read?
A: The value was 1.47e-05 ± 8.4e-06 s⁻¹.

Q: Which “self-cleavage kobs at 10000 uM GlcN6P” value does the source give for AUAAAAGCGCCAGAACUACAGAAAUGUAGUUGACGCGGAGGAGGUUUAUCGAAUUUUCGGCGGAUGAGUCCAAA [A36C C67A C68G] here?
A: The value was 3.14e-05 ± 1.9e-05 s⁻¹.

Q: AUAAAAGCGCCAGAACUACAGAAAUGUAGUUGACGAGGAGGAGGUGUAUUGAAUUUUCGGCGGAUGCCUCCAAA [U46G C50U] was tested. Which “self-cleavage kobs at 10000 uM GlcN6P” value did it give?
A: The value was 2e-05 ± 1.3e-05 s⁻¹.

Q: How did the “self-cleavage kobs at 10000 uM GlcN6P” value turn out when AUAAAAGCGCCAGAACUACAGAAAUGUAGUUGACGAGGAGGAGGUUGAUCGAAUUUUCGGUGGAUGCCUUCAAA [U47G C61U C70U] was run?
A: The value was 2.72e-05 ± 2.1e-05 s⁻¹.

Q: For AUAAAAGCGCCAGAACUACAGAAAUGUAGUUGACGAGGAGGAGGUUUAUCGAAUUUUCGGGGGAUGCCUCGAAA [C61G C71G], which “self-cleavage kobs at 10000 uM GlcN6P” value is on record?
A: Its value is 1.8e-05 ± 1.4e-05 s⁻¹.

Q: How did the “self-cleavage kobs at 10000 uM GlcN6P” value turn out when AUAAAAGCGCCAGAACUACAGAAAUGUAGUUGACGAGGAGGAGAUUUAUCGAAUUUUCGGCGGAUGCCUUCAAA [G44A C70U] was run?
A: The value was 1.14e-05 ± 1.1e-05 s⁻¹.

Q: How did the “self-cleavage kobs at 10000 uM GlcN6P” value turn out when AUAAAAGCGCCAGAACUACAGAAAUGUAGUUGACGAGGAGGAGGUUUAUCGAAUUUUUGGCGGAAGCGUCCAAA [C58U U65A C68G] was run?
A: The value was 1.77e-05 ± 1.6e-05 s⁻¹.

Q: How did the “self-cleavage kobs at 10000 uM GlcN6P” value turn out when AUAAAAGCGCCAGAACUACAGAAAUGUAGUUGACGAGGAGGAGGUUUAUUGAAUUAUCGGCGGAUGCCUCCAAA [C50U U56A] was run?
A: The value was 1.91e-05 ± 1.3e-05 s⁻¹.

Q: With AUAAAAGCGCCAGAACUACAGAAAUGUAGUUGAUGAGGAGGAGGUUUAUCGAAUUUUCGGCGGAUGCCACCAAA [C34U U69A] as the variant, how does the “self-cleavage kobs at 10000 uM GlcN6P” value read?
A: The value was 0.000557 ± 0.00052 s⁻¹.

Q: For AUAAAAGCGCCAGAACUACAGAAAUGUAGUUGACGAGGAAGAGGUUUAUCGAAUCUUCGGCGGGUGCCUCCAAA [G40A U55C A64G], which “self-cleavage kobs at 10000 uM GlcN6P” value is on record?
A: Its value is 2.77e-05 ± 1.6e-05 s⁻¹.

Q: With AUAAAAGCGCCAGAACUACAGAAAUGUAGUUGACGAGGAGGAAGUAUAUCGAAUUUUCGGCGGAUGCCUCCAAA [G43A U46A] as the variant, how does the “self-cleavage kobs at 10000 uM GlcN6P” value read?
A: Its value is 1.73e-05 ± 1.7e-05 s⁻¹.

Q: How did the “self-cleavage kobs at 10000 uM GlcN6P” value turn out when AUAAAAGCGCCAGAACUACAGAAAUGUAGUUGACGAGGAGGAGGUUUAUCGAAUUUUCUGCGGAUGACUCCAAA [G59U C67A] was run?
A: Its value is 1.55e-05 ± 1.3e-05 s⁻¹.
